# The supplement of paper PMC4604168 (melanoma cell lines)
# The other results are listed elsewhere or left out. Single values are uncertain, as repeats are few or missing.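 Cells were imaged in 1,536-well plates, and nuclei stained with an antibody against cleaved PARP were counted against all DNA-stained nuclei to give the apoptosis fraction. Screening doses were chosen to leave most cells alive, and resting and induced cleaved-PARP levels differ strongly between cell lines.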
# Columns and labels:
# Test in all cases: cleaved PARP positive nuclei fraction relative to DMSO control; melanoma cells; higher = more apoptosis
# Settings in all cases: library dose: low library concentration; 72 h
# MeWo = system: MeWo
# RPMI7951 = system: RPMI7951
# RVH-421 = system: RVH-421
# SkMel28 = system: SkMel28
# SkMel30 = system: SkMel30
# UACC62 = system: UACC62
# WM115 = system: WM115
# WM1716 = system: WM1716
# WM1745 = system: WM1745
# WM3526 = system: WM3526
# WM3619 = system: WM3619
# WM451Lu = system: WM451Lu
# SkMel2 = system: SkMel2
# SkMel5 = system: SkMel5
# UACC257 = system: UACC257
SMILES,cleaved PARP positive nuclei fraction (MeWo),cleaved PARP positive nuclei fraction (RPMI7951),cleaved PARP positive nuclei fraction (RVH-421),cleaved PARP positive nuclei fraction (SkMel28),cleaved PARP positive nuclei fraction (SkMel30),cleaved PARP positive nuclei fraction (UACC62),cleaved PARP positive nuclei fraction (WM115),cleaved PARP positive nuclei fraction (WM1716),cleaved PARP positive nuclei fraction (WM1745),cleaved PARP positive nuclei fraction (WM3526),cleaved PARP positive nuclei fraction (WM3619),cleaved PARP positive nuclei fraction (WM451Lu),cleaved PARP positive nuclei fraction (SkMel2),cleaved PARP positive nuclei fraction (SkMel5),cleaved PARP positive nuclei fraction (UACC257)
"CN1CCN(c2ccc3nc(-c4c(N)c5c(F)cccc5[nH]c4=O)[nH]c3c2)CC1 [Dovitinib] + Nc1ccn([C@@H]2O[C@H](CO)[C@@H](O)C2(F)F)c(=O)n1 [gemcitabine] (first compound 0.1 µM, partner dose 0.0004 µM)",129%,108%,59.6%,103%,171%,78.3%,139%,185%,272%,51.6%,101%,216%,,,
"CO[C@H]1C[C@@H]2CC[C@@H](C)[C@@](O)(O2)C(=O)C(=O)N2CCCC[C@H]2C(=O)O[C@H]([C@H](C)C[C@@H]2CC[C@@H](OCCO)[C@H](OC)C2)CC(=O)[C@H](C)/C=C(\C)[C@@H](O)[C@@H](OC)C(=O)[C@H](C)C[C@H](C)/C=C/C=C/C=C/1C [everolimus] + COCC[n+]1c2c(n(Cc3cnccn3)c1C)C(=O)c1ccccc1C2=O [YM155] (first compound 0.02 µM, partner dose 0.0004 µM)",89.6%,128%,148%,117%,178%,256%,85.7%,125%,119%,48.4%,111%,123%,,,
"Cc1cc(Nc2cc(N3CCN(C)CC3)nc(/C=C/c3ccccc3)n2)n[nH]1 + C=C(c1ccc(C(=O)O)cc1)c1cc2c(cc1C)C(C)(C)CCC2(C)C [Bexarotene] (first compound 0.04 µM, partner dose 2 µM)",113%,116%,60.1%,151%,87.2%,68.7%,87.7%,48.8%,110%,85%,82.9%,40.1%,29.2%,,
"O=C(O)c1ccc2c(c1)nc(Nc1cccc(Cl)c1)c1ccncc12 + c1cc(-c2cnn3cc(-c4ccc(OCCN5CCCCC5)cc4)cnc23)ccn1 [Dorsomorphin] (first compound 0.4 µM, partner dose 0.4 µM)",106%,63.1%,214%,63.3%,92.1%,111%,129%,59.7%,392%,234%,91.8%,77.3%,,79.3%,312%
"C=C(c1ccc(C(=O)O)cc1)c1cc2c(cc1C)C(C)(C)CCC2(C)C [Bexarotene] + Nc1ncn([C@H]2C[C@H](O)[C@@H](CO)O2)c(=O)n1 [decitabine] (first compound 2 µM, partner dose 0.1 µM)",67.1%,69.8%,236%,102%,67.4%,75.6%,67.1%,129%,97.7%,205%,84.6%,146%,,,
"Cc1cc(Nc2cc(N3CCN(C)CC3)nc(/C=C/c3ccccc3)n2)n[nH]1 + CN(NC(=O)CC(=O)NN(C)C(=S)c1ccccc1)C(=S)c1ccccc1 [STA4783] (first compound 0.04 µM, partner dose 0.006 µM)",174%,42.4%,54.6%,61.2%,66.8%,59.8%,167%,176%,181%,63.2%,128%,110%,,236%,208%
"O=C(O)c1ccc2c(c1)nc(Nc1cccc(Cl)c1)c1ccncc12 + C#Cc1cccc(Nc2ncnc3cc(OCCOC)c(OCCOC)cc23)c1 [erlotinib] (first compound 0.4 µM, partner dose 0.8 µM)",64.5%,104%,183%,126%,145%,80%,142%,52.1%,98.1%,105%,101%,110%,124%,,
"CO[C@H]1C[C@@H]2CC[C@@H](C)[C@@](O)(O2)C(=O)C(=O)N2CCCC[C@H]2C(=O)O[C@H]([C@H](C)C[C@@H]2CC[C@@H](OCCO)[C@H](OC)C2)CC(=O)[C@H](C)/C=C(\C)[C@@H](O)[C@@H](OC)C(=O)[C@H](C)C[C@H](C)/C=C/C=C/C=C/1C [everolimus] + CCc1ccc(CCOc2ccc(CC3SC(=O)NC3=O)cc2)nc1 [pioglitazone] (first compound 0.02 µM, partner dose 2 µM)",38%,74.2%,191%,232%,100%,221%,98.9%,130%,114%,101%,106%,42.6%,,64.2%,152%
"Cn1c(=O)n(-c2ccc(C(C)(C)C#N)cc2)c2c3cc(-c4cnc5ccccc5c4)ccc3ncc21 + CN(NC(=O)CC(=O)NN(C)C(=S)c1ccccc1)C(=S)c1ccccc1 [STA4783] (first compound 0.004 µM, partner dose 0.006 µM)",94.5%,174%,62.8%,117%,89.3%,207%,135%,193%,156%,59.3%,146%,58.1%,,175%,113%
"C[C@@H](Oc1cc(-c2cnn(C3CCNCC3)c2)cnc1N)c1c(Cl)ccc(F)c1Cl [Crizotinib] + COCC[n+]1c2c(n(Cc3cnccn3)c1C)C(=O)c1ccccc1C2=O [YM155] (first compound 0.2 µM, partner dose 0.0004 µM)",23.8%,110%,74.2%,40.3%,64%,79.1%,115%,122%,103%,78.1%,85.7%,98.1%,,,
"Nc1ncn([C@H]2C[C@H](O)[C@@H](CO)O2)c(=O)n1 [decitabine] + O=C(O)C(=O)Nc1sc2c(c1C(=O)O)CCNC2 [TCS401] (first compound 0.1 µM, partner dose 1.66667 µM)",60.9%,76.6%,27.5%,108%,349%,99.1%,179%,83.5%,111%,63.8%,97.4%,34.9%,,310%,191%
"CO[C@H]1C[C@@H]2CC[C@@H](C)[C@@](O)(O2)C(=O)C(=O)N2CCCC[C@H]2C(=O)O[C@H]([C@H](C)C[C@@H]2CC[C@@H](OCCO)[C@H](OC)C2)CC(=O)[C@H](C)/C=C(\C)[C@@H](O)[C@@H](OC)C(=O)[C@H](C)C[C@H](C)/C=C/C=C/C=C/1C [everolimus] + CC(C)CCN1c2nc(Nc3cc(F)c(O)c(F)c3)ncc2N(C)C(=O)C1C [BID1870] (first compound 0.02 µM, partner dose 0.2 µM)",35.4%,179%,108%,358%,99.3%,464%,237%,203%,108%,81.3%,152%,145%,,70%,55.9%
"O=C(O)c1ccc2c(c1)nc(Nc1cccc(Cl)c1)c1ccncc12 + Cn1cc(/C=C2\C(=O)Nc3cccnc32)c2ccccc21 [GW441756] (first compound 0.4 µM, partner dose 0.4 µM)",164%,66.6%,62.5%,69.2%,78.1%,109%,146%,95%,88.3%,42.7%,88.7%,47.1%,,90.1%,115%
"C=C(c1ccc(C(=O)O)cc1)c1cc2c(cc1C)C(C)(C)CCC2(C)C [Bexarotene] + C[C@@H]1CCN(C(=O)CC#N)C[C@@H]1N(C)c1ncnc2[nH]ccc12 [CP690550] (first compound 2 µM, partner dose 1 µM)",57.2%,219%,214%,76.3%,67.2%,58.2%,140%,155%,102%,141%,75.4%,283%,,251%,118%
"Nc1ncn([C@H]2C[C@H](O)[C@@H](CO)O2)c(=O)n1 [decitabine] + COc1ccc(COc2ccc(Cc3cnc(N)nc3N)cc2OC)cc1 [GW2580] (first compound 0.1 µM, partner dose 1 µM)",109%,293%,154%,161%,13%,96%,84.8%,223%,89.8%,101%,103%,143%,,140%,252%
"CCCS(=O)(=O)Nc1ccc(F)c(C(=O)c2c[nH]c3ncc(Cl)cc23)c1F + NC(=O)Nc1cc(-c2cccc(F)c2)sc1C(=O)N[C@H]1CCCNC1 [AZD7762] (first compound 0.08 µM, partner dose 0.02 µM)",87.7%,107%,87.4%,93.3%,49.6%,445%,98.6%,116%,80.9%,96.6%,193%,81.2%,,104%,90.5%
"CC(C)C[C@H](NC(=O)[C@H](Cc1ccccc1)NC(=O)c1cnccn1)B(O)O [Bortezomib] + CCN(CC)CCCCNc1ncc2cc(-c3cc(OC)cc(OC)c3)c(NC(=O)NC(C)(C)C)nc2n1 [PD173074] (first compound 0.001 µM, partner dose 0.1 µM)",44.5%,50.5%,186%,59.5%,49.2%,119%,154%,490%,117%,51%,640%,156%,,72%,71.4%

# Not a retest: entries from further up.
SMILES,cleaved PARP positive nuclei fraction (MeWo),cleaved PARP positive nuclei fraction (RPMI7951),cleaved PARP positive nuclei fraction (RVH-421),cleaved PARP positive nuclei fraction (SkMel28),cleaved PARP positive nuclei fraction (SkMel30),cleaved PARP positive nuclei fraction (UACC62),cleaved PARP positive nuclei fraction (WM115),cleaved PARP positive nuclei fraction (WM1716),cleaved PARP positive nuclei fraction (WM1745),cleaved PARP positive nuclei fraction (WM3526),cleaved PARP positive nuclei fraction (WM3619),cleaved PARP positive nuclei fraction (WM451Lu),cleaved PARP positive nuclei fraction (SkMel2),cleaved PARP positive nuclei fraction (SkMel5),cleaved PARP positive nuclei fraction (UACC257)
"O=C(O)c1ccc2c(c1)nc(Nc1cccc(Cl)c1)c1ccncc12 + Cn1cc(/C=C2\C(=O)Nc3cccnc32)c2ccccc21 [GW441756] (first compound 0.4 µM, partner dose 0.4 µM)",164%,66.6%,62.5%,69.2%,78.1%,109%,146%,95%,88.3%,42.7%,88.7%,47.1%,,90.1%,115%
"C=C(c1ccc(C(=O)O)cc1)c1cc2c(cc1C)C(C)(C)CCC2(C)C [Bexarotene] + C[C@@H]1CCN(C(=O)CC#N)C[C@@H]1N(C)c1ncnc2[nH]ccc12 [CP690550] (first compound 2 µM, partner dose 1 µM)",57.2%,219%,214%,76.3%,67.2%,58.2%,140%,155%,102%,141%,75.4%,283%,,251%,118%
"Nc1ncn([C@H]2C[C@H](O)[C@@H](CO)O2)c(=O)n1 [decitabine] + COc1ccc(COc2ccc(Cc3cnc(N)nc3N)cc2OC)cc1 [GW2580] (first compound 0.1 µM, partner dose 1 µM)",109%,293%,154%,161%,13%,96%,84.8%,223%,89.8%,101%,103%,143%,,140%,252%
